From ChEMBL document CHEMBL3988442, “University of Dundee, Small-Polar-MMV Screening Library” (2021).

By UniProt entry, the sequences of proteins in these tests, tags left out.
UniProt P9WNZ1, whole entry: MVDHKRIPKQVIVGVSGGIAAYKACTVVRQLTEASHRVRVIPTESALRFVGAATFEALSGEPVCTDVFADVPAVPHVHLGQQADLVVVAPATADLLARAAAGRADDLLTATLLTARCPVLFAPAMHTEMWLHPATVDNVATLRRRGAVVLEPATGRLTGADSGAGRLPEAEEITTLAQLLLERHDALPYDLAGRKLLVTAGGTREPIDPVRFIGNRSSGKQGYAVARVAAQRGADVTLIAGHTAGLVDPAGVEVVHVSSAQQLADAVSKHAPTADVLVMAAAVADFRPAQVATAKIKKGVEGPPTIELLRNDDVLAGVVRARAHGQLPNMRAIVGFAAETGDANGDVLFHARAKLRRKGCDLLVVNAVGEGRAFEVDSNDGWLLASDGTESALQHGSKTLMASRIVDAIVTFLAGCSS
UniProt P9WFT3, whole entry: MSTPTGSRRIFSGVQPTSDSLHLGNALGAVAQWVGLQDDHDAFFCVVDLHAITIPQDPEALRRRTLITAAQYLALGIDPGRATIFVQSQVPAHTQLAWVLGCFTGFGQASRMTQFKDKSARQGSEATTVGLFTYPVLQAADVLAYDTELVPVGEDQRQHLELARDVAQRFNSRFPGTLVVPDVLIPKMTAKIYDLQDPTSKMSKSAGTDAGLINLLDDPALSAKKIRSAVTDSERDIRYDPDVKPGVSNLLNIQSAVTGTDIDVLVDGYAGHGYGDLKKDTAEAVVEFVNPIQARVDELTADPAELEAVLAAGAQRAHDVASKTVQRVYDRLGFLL

CoaBC: 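Enzyme assay of CoaBC with a phosphate dye (Biomol Green) read at 650 nm. Target: Coenzyme A biosynthesis protein CoaBC, Mycobacterium tuberculosis (UniProt P9WNZ1). Tested at 30 µM. Direction is inferred from only a few compounds that gave an IC50; most scored high, so higher reads as stronger inhibition. Most strong results did not repeat in a second test. About 67,000 compounds were tested under these conditions; 0.06% (about 40) showed 50% or more at least once.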
MtTrpRS: 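Enzyme assay of tryptophanyl-tRNA synthetase; the read-out is not stated. Target: Tryptophan-tRNA ligase, Mycobacterium tuberculosis (UniProt P9WFT3). Concentration: 10 µM. Direction is not recorded; retested compounds ran higher, which suggests that high means inhibition. About 65,000 compounds were tested under these conditions; 0.098% (about 64) showed 50% or more at least once.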

Values are the deposited “Percent Effect”, in %.
The record does not define 0% and 100%; most values in the screen are far below 50% and negative numbers occur (in some assays of this library far below -100).
The compounds are a random part of those screened.
A dash means the value is not listed here; it may have been measured.

| compound | CoaBC | MtTrpRS |
|---|---|---|
| `CN(Cc1ccc(F)cc1)CC1(O)CCN(C(=O)c2ccn(C)n2)C1` (stereo unspecified) | 0% | - |
| `COCCOc1ncccc1C(=O)Nc1ccc(-n2cncn2)c(F)c1` | 3.457% | 0.3145% |
| `CCN(Cc1ccc2c(c1)OCO2)S(=O)(=O)N(C)C(C)C` | 0.2389% | 30.02% |
| `COc1c(F)cc(NCC(=O)NC(C)(C#N)C2CC2)cc1F` (stereo unspecified) | - | 2.926% |
| `CCN(CC)S(=O)(=O)NC1CCCc2nc(-c3ccccc3)ncc21` (stereo unspecified) | 3.074% | 3.43% |
| `CCNc1c(C#N)c(=O)n(C)c(=O)n1C` | -4.382% | -6.208% |
| `CCCN1CCc2[nH]cnc2C12CCN(C(=O)CCn1cccn1)CC2` | 1.238% | 3.527% |
| `CC1=NOC(C(=O)N2CCC(O)(c3ccc4nc(C)ccc4c3)CC2)C1` (stereo unspecified) | -5.325% | 3.232% |
| `COCCNC(=O)Cn1c(-c2ccco2)cc2cccnc21` | 0.6849% | -4.4% |
| `CN(C)S(=O)(=O)N1CC[C@]2(O)CCN(c3nccs3)C[C@@H]2C1` | 7.673% | 2.697% |
| `COc1cccnc1-c1ccc(F)c2c1OC(CN)C2` (stereo unspecified) | 3.893% | 2.527% |

Once more, the final 2:

compound,CoaBC,MtTrpRS
CN(C)S(=O)(=O)N1CC[C@]2(O)CCN(c3nccs3)C[C@@H]2C1,7.673%,2.697%
COc1cccnc1-c1ccc(F)c2c1OC(CN)C2 (stereo unspecified),3.893%,2.527%